Source: the supplement of paper PMC10060354, “Discovery of a small molecule ligand of FRS2 that inhibits invasion and tumor growth” (Cellular Oncology, 2022)

Protein sequences, listed by entry. Tags and fused reporters are not part of them. Lines headed by an entry give the natural chain unless they say otherwise; changes in a name come on top.
UniProt Q9HCD5: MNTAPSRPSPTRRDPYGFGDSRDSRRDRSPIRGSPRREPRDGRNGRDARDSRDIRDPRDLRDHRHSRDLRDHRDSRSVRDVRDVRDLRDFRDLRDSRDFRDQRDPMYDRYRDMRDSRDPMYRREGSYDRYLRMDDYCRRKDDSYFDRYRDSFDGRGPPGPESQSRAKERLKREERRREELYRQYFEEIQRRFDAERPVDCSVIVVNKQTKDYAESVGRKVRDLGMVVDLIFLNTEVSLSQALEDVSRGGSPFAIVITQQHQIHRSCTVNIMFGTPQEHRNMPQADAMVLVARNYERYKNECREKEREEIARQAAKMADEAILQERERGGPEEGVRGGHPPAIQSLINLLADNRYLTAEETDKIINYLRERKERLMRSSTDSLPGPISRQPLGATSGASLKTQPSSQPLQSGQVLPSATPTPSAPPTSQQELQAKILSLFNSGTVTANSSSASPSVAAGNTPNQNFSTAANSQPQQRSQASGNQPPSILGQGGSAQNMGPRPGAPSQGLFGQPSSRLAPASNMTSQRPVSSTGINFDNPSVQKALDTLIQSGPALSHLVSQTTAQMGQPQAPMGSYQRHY
UniProt P54762: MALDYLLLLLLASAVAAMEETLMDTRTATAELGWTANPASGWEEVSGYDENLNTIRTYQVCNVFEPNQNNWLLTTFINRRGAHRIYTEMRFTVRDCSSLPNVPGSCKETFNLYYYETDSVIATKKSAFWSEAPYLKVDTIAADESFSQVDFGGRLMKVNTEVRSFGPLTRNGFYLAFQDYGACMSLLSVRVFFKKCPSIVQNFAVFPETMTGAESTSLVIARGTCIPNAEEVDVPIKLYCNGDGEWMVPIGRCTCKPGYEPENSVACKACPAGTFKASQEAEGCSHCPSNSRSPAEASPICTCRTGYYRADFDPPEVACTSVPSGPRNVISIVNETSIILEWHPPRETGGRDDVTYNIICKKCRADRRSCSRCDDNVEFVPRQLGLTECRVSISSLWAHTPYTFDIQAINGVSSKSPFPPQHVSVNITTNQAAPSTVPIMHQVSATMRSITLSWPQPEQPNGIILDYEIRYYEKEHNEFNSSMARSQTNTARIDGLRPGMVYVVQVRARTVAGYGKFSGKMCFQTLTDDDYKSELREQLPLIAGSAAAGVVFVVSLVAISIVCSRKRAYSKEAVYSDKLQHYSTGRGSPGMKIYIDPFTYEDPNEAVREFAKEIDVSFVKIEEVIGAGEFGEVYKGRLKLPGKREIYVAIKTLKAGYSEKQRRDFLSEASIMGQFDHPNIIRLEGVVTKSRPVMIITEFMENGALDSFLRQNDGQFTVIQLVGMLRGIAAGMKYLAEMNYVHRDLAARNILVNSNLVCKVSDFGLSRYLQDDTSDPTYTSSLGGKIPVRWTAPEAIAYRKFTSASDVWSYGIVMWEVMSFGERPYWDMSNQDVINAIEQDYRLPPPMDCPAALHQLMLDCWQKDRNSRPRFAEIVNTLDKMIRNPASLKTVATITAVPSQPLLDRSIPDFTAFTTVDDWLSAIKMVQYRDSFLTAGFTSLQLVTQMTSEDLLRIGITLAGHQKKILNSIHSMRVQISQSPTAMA
UniProt O14974: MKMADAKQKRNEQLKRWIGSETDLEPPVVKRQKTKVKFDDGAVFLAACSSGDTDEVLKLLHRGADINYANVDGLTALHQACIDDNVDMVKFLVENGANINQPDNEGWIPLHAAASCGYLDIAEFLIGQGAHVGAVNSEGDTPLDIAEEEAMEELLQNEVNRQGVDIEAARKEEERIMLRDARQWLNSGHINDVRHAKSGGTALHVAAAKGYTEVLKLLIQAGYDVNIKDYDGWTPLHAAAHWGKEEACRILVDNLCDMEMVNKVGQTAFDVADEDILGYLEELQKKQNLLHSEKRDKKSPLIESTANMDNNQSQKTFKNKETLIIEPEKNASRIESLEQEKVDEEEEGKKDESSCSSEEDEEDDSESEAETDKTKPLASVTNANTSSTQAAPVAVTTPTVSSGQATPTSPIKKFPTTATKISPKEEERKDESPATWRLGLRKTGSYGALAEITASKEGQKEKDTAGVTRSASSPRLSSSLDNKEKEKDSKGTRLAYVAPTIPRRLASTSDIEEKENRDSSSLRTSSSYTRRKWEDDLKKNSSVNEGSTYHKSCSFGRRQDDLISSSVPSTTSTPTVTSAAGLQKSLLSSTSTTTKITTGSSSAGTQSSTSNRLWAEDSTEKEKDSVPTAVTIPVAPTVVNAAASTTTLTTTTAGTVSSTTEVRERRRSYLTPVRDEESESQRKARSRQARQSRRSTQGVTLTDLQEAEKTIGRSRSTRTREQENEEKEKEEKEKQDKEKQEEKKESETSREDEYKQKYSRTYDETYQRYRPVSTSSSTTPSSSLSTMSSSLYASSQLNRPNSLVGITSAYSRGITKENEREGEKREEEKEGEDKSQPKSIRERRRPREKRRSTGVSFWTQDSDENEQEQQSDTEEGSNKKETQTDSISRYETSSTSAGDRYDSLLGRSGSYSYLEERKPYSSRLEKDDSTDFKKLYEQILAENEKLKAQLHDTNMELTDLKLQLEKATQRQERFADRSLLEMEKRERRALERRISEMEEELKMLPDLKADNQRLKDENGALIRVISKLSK
UniProt Q96IV0: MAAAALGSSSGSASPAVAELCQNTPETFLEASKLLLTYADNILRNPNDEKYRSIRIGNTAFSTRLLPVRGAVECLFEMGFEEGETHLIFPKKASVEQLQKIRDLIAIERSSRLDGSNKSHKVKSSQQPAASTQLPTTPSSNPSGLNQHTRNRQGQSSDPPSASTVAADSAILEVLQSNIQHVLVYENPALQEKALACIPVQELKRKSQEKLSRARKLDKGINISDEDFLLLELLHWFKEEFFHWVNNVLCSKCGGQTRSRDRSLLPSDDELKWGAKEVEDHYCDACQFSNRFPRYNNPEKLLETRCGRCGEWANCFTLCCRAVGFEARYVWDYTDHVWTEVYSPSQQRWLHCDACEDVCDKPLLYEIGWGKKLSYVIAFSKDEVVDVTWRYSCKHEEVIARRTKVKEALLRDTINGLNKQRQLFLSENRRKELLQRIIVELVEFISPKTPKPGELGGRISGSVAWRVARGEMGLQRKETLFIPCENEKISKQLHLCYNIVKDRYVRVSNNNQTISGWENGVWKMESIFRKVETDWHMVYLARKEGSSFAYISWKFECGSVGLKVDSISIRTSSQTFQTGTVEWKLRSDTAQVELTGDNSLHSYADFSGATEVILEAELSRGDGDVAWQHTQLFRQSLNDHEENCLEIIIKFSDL
UniProt Q14232, whole entry: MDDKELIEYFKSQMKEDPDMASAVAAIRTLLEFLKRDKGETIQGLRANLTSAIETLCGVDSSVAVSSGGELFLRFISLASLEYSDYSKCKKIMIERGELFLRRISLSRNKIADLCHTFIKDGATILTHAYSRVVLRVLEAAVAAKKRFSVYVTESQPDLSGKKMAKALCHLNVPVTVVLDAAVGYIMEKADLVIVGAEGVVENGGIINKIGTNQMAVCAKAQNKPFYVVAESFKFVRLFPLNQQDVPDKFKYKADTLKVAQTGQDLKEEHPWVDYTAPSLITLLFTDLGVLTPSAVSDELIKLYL
UniProt Q02127: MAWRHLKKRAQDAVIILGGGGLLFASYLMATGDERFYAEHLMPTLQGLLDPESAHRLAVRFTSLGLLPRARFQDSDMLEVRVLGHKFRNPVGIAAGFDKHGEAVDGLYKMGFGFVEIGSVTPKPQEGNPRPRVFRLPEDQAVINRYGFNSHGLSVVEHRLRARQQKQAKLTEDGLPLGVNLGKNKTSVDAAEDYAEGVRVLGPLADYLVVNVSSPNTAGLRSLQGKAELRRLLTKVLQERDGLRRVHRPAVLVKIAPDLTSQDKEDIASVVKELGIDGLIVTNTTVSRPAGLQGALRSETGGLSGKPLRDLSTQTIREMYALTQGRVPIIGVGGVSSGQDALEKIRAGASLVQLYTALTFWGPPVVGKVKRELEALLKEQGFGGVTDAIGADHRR
UniProt Q8N752: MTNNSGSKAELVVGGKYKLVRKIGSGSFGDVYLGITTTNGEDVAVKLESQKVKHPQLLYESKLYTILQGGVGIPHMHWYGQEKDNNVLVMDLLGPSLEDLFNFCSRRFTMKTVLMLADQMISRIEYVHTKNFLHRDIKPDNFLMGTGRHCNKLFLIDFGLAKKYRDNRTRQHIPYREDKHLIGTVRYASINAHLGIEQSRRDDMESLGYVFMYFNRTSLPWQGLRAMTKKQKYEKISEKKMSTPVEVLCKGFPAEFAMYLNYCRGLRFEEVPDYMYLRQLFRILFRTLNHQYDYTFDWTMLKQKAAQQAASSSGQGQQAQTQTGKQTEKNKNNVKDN
UniProt P55060: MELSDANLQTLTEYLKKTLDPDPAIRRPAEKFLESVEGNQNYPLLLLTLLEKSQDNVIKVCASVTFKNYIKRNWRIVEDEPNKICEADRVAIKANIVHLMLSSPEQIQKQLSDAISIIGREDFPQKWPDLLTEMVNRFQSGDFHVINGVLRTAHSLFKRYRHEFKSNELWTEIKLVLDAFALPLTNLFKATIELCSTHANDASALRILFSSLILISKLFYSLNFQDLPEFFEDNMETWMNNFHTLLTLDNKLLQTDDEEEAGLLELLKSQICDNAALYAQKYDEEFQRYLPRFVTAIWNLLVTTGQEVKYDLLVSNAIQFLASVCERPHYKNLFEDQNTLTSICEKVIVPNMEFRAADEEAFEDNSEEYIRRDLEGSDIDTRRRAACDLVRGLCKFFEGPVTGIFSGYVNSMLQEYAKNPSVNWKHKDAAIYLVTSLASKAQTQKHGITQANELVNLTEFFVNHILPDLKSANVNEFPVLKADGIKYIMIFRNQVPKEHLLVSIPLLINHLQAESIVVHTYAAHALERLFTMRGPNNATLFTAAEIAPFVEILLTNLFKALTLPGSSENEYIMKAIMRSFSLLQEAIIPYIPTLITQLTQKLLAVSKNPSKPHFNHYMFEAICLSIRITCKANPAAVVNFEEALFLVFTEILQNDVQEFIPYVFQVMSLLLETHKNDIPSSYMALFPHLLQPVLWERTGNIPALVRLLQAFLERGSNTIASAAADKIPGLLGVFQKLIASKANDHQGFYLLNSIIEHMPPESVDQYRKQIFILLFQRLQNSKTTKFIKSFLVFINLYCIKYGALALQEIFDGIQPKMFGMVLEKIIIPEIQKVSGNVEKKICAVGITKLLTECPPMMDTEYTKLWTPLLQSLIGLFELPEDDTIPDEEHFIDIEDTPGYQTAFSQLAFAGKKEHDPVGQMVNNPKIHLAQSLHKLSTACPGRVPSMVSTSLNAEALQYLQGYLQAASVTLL
UniProt Q15208: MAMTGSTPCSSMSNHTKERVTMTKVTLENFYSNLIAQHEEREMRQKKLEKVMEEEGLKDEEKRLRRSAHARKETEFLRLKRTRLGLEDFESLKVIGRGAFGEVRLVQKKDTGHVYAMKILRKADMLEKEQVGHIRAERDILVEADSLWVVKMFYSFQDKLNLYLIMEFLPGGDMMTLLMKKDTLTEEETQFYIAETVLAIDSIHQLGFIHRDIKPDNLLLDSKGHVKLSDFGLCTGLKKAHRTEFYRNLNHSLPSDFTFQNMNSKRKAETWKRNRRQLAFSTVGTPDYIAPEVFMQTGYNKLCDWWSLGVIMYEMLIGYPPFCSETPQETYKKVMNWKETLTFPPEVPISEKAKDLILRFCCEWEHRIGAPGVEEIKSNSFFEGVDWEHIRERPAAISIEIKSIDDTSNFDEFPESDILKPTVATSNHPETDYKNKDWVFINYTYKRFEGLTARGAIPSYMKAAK
UniProt P08243: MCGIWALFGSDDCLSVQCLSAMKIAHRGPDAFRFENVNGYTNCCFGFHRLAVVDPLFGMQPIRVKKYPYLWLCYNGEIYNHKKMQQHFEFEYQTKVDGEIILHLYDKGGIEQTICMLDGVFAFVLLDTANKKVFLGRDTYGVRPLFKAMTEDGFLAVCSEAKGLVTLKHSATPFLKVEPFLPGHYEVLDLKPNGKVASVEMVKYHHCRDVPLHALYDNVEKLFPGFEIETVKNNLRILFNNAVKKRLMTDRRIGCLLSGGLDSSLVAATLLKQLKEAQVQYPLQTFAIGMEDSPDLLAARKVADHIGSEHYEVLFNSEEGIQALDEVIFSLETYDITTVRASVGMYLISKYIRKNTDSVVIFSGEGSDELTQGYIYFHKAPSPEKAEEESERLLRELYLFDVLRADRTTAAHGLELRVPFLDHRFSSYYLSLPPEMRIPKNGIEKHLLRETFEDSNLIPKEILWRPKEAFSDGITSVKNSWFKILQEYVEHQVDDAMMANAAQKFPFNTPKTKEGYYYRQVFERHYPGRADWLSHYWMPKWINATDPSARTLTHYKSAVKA
UniProt P28074: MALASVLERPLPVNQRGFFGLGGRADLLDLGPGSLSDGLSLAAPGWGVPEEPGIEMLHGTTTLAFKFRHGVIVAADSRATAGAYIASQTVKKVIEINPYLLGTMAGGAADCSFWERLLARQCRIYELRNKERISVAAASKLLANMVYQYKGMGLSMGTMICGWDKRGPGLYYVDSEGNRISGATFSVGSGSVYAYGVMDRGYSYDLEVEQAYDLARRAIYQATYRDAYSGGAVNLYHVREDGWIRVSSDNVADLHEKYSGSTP

Compound: [O-][N+](C(C1=C(C(O)=C2)NC(C(C=C3)=CC=C3Cl)C4C1C=CC4)=C2Cl)=O
Assay: melting temperature shift (compound 7 minus DMSO); higher = compound stabilises the protein
Settings: 10 µM
Method: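 Thermal proteome profiling (TMT mass spectrometry) in intact DAOY medulloblastoma cells or DAOY lysates treated with 10 µM compound 7 or DMSO, heated at 10 temperatures from 40.5 to 73.8 °C for 3 min. Melting curves were fitted with the Bioconductor TPP package, and the melting point difference between compound and vehicle is reported per protein (single curve per condition).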

[1] = system: DAOY cell lysate, treatment time: 20 min, 4 °C
[2] = system: intact DAOY cells, treatment time: 90 min, 37 °C

| Target | melting temperature shift [1] [°C] | melting temperature shift [2] [°C] |
| --- | --- | --- |
| METTL13 (UniProt Q8N6R0) | -0.6 | -0.702 |
| PMPCB (UniProt O75439) | -0.783 | 0.658 |
| LANCL1 (UniProt O43813) | -0.313 | 0.176 |
| SMARCE1 (UniProt Q969G3) | -0.276 | -0.887 |
| GBA (UniProt P04062) | 0.797 | 0.635 |
| PRKAR1B (UniProt P31321) | -1.74 | 0.0264 |
| TOLLIP (UniProt Q9H0E2) | 0.204 | 0.193 |
| EMC7 (UniProt Q9NPA0) | 0.696 | -1.21 |
| UniProt P48751 |  | 0.394 |
| MANBAL (UniProt Q9NQG1) | -0.312 |  |
| USP11 (UniProt P51784) | -0.763 | -0.119 |
| NCOA5 (UniProt Q9HCD5) | 0.964 | 1.55 |
| UniProt Q9P289 | -0.315 | -1.01 |
| SCP2 (UniProt P22307) | 2.04 | -0.972 |
| RPA3 (UniProt P35244) | -1.56 | 0.849 |
| UniProt O43731 | -0.249 |  |
| UniProt Q96ME7 | 0.305 |  |
| ABHD11 (UniProt Q8NFV4) | 1.29 | 0.367 |
| EPHB1 (UniProt P54762) |  | -0.832 |
| BIRC6 (UniProt Q9NR09) | -0.484 | -0.418 |
| UniProt Q96S65 |  | 2.41 |
| PPP1R12A (UniProt O14974) | -0.465 | -0.686 |
| KRAS (UniProt P01116) | 1.94 | -0.598 |
| C18ORF25 (UniProt Q96B23) | 4.17 |  |

Pulled one by one from the list above, three records:

| Target | melting temperature shift [1] [°C] | melting temperature shift [2] [°C] |
| --- | --- | --- |
| SCP2 (UniProt P22307) | 2.04 | -0.972 |
| RPA3 (UniProt P35244) | -1.56 | 0.849 |
| UniProt Q96S65 |  | 2.41 |

Reformatted: entries from further up
METTL13 (UniProt Q8N6R0)
  melting temperature shift [1] [°C]: -0.6
  melting temperature shift [2] [°C]: -0.702
LANCL1 (UniProt O43813)
  melting temperature shift [1] [°C]: -0.313
  melting temperature shift [2] [°C]: 0.176
C18ORF25 (UniProt Q96B23)
  melting temperature shift [1] [°C]: 4.17

Following part

| Target | melting temperature shift [1] [°C] | melting temperature shift [2] [°C] |
| --- | --- | --- |
| UniProt P32456 | -0.864 | 0.181 |
| LNPEP (UniProt Q9UIQ6) | 0.644 | 0.376 |
| UniProt Q04695 |  | 13.8 |
| KLC2 (UniProt Q9H0B6) | 0.0743 | -0.349 |
| UniProt Q9UBG7 |  | -2.07 |
| IDH3G (UniProt P51553) | -0.347 |  |
| ST3GAL4 (UniProt Q11206) |  | -0.616 |
| DOCK9 (UniProt Q9BZ29) | 1.07 | -1.04 |
| SNAP23 (UniProt O00161) | -0.427 |  |
| NGLY1 (UniProt Q96IV0) | 0.497 |  |
| UniProt Q53EU6 | 0.173 | 2.64 |
| MACROD1 (UniProt Q9BQ69) | 3.19 |  |
| ARAP1 (UniProt Q96P48) | 0.143 | -0.753 |
| EXOSC8 (UniProt Q96B26) | 0.0522 | -0.607 |
| UniProt P58876 |  | -0.494 |
| KIAA0907 (UniProt Q7Z7F0) | -1.8 | -2.28 |
| UniProt Q9Y5Z7 |  | -1.55 |
| UniProt O00144 |  | 1.93 |
| STK39 (UniProt Q9UEW8) | -2.17 | 2.96 |
| EIF2B1 (UniProt Q14232) | -1.2 | 0.476 |
| DHODH (UniProt Q02127) | 0.922 |  |
| UniProt Q8IVL0 |  | -0.346 |
| DNAJB6 (UniProt O75190) | -1.34 | -0.0239 |
| OXCT1 (UniProt P55809) | 0.191 | 0.157 |

| Target | melting temperature shift [1] [°C] | melting temperature shift [2] [°C] |
| --- | --- | --- |
| NNMT (UniProt P40261) | -1.01 | -0.117 |
| FKBP4 (UniProt Q02790) | -0.339 | -0.326 |
| KARS (UniProt Q15046) | 0.0991 | -0.448 |
| WDR41 (UniProt Q9HAD4) | -0.552 | -0.321 |
| ADSSL1 (UniProt Q8N142) |  | 0.14 |
| MTRR (UniProt Q9UBK8) | -0.16 |  |
| RAF1 (UniProt P04049) | -1.44 | -0.397 |
| KIF1C (UniProt O43896) |  | -1.6 |
| CHAF1A (UniProt Q13111) | 0.732 | -0.129 |
| ESD (UniProt P10768) | -0.489 | -0.466 |
| UniProt Q13761 |  | -1.53 |
| UniProt P48741 |  | 0.586 |
| GIGYF2 (UniProt Q6Y7W6) | -0.381 | -0.14 |
| RPL27 (UniProt P61353) | -0.0959 | -0.169 |
| UniProt Q8WVN8 |  | 0.307 |
| CDC23 (UniProt Q9UJX2) | 0.216 | 0.286 |
| CSNK1A1L (UniProt Q8N752) |  | -0.0531 |
| UniProt Q9ULM3 | -0.688 | 0.471 |
| RBBP6 (UniProt Q7Z6E9) | 0.0222 |  |
| GMDS (UniProt O60547) | -0.343 | -1.13 |
| HNRNPAB (UniProt Q99729) | -0.0274 | 0.395 |
| NAT6 (UniProt Q93015) |  | 4.87 |
| CLASP2 (UniProt O75122) | -1.57 | 0.263 |
| CSE1L (UniProt P55060) | -0.269 | -1.5 |

| Target | melting temperature shift [1] [°C] | melting temperature shift [2] [°C] |
| --- | --- | --- |
| UniProt Q15208 | -0.762 | -0.46 |
| EIF3H (UniProt O15372) | -0.486 | 0.724 |
| UniProt A9Z1Z3 |  | 0.0972 |
| UniProt P02751 | 1.45 | -0.169 |
| BUB1B (UniProt O60566) | -0.0481 | -0.64 |
| ASNS (UniProt P08243) | -0.097 | -1.18 |
| PSMB2 (UniProt P49721) |  | -0.476 |
| POLR2D (UniProt O15514) | -1.38 | -0.96 |
| PSMB5 (UniProt P28074) |  | -0.379 |
| HSP90B1 (UniProt P14625) | 1.13 | 0.309 |
| TALDO1 (UniProt P37837) | -0.408 | 0.216 |
| UniProt Q8N7P1 |  | 0.279 |
| RPL23 (UniProt P62829) | 0.109 | -0.645 |
| NDUFS4 (UniProt O43181) | 2.58 |  |
| MRI1 (UniProt Q9BV20) | -1.09 | 0.0188 |
| GTPBP10 (UniProt A4D1E9) | -1.23 | -0.691 |
| UniProt P27216 |  | -0.0232 |
| UniProt Q9UPT6 |  | -0.142 |
| FAF1 (UniProt Q9UNN5) | -0.726 | 0.684 |
| RPS3A (UniProt P61247) | 0.157 | -0.957 |
| EIF3I (UniProt Q13347) | -1.19 | -0.0835 |

Many values rest on one well or one pass, so single values are uncertain.
